# The other results are listed elsewhere or left out.
# B1: Pwp1 (Candida glabrata) (protein)
# chain: MGSSHHHHHHSSGLVPRGSHMASANPISITNVCQFPDNWARTAGFQATTVRLGLTIASNTYKELLNYPGLFNFATQKATVTQPNFSISGFPFFTGLYGLTVWPINLLVELQGYFVPPESGNYTFTLQGSDDAAILFFANPSTFACGSQNDWPQPREADITVTDTLVPSRTLYLVKGVAYPIRIAYYNGSGDGKLNVSFKDPSGTTHTDWKGYVWQYSNTCSTCTYT
# What was measured:
# Experiment in all cases: glycan array binding signal (z-score within array); higher = stronger binding
# Conditions in all cases: glycan notation: IUPAC condensed, linker removed
# Neu5Ac(a2-8)Neu5Ac = target: Neu5Ac(a2-8)Neu5Ac
# Summary of the method: (§1)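 Arrays were curated from the Consortium for Functional Glycomics database, 3228 in total, and kept only where the protein sequence was available. Binding is expressed as a within-array Z-score. This score was averaged across arrays of the same protein sequence at different concentrations or buffers and across linkers, and negative values can be read as non-binding.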
# [1] = target: Neu5Ac(a2-8)Neu5Ac(a2-3)Gal(b1-3)GalNAc(b1-4)[Neu5Ac(a2-3)]Gal(b1-4)Glc
# Summary of the method: as §1
# [2] = target: Neu5Ac(a2-8)Neu5Ac(a2-3)Gal(b1-3)GalNAc(b1-4)[Neu5Ac(a2-8)Neu5Ac(a2-3)]Gal(b1-4)Glc
# Summary of the method: as §1
# [3] = target: Neu5Ac(a2-8)Neu5Ac(a2-3)Gal(b1-4)Glc
# Summary of the method: as §1
# [4] = target: Neu5Ac(a2-8)Neu5Ac(a2-3)Gal(b1-4)GlcNAc
# Summary of the method: as §1
# [5] = target: Neu5Ac(a2-8)Neu5Ac(a2-3)[Gal(b1-3)GalNAc(b1-4)]Gal(b1-4)Glc
# Summary of the method: as §1
# [6] = target: Neu5Ac(a2-8)Neu5Ac(a2-3)[GalNAc(b1-4)]Gal(b1-4)Glc
# Summary of the method: as §1
# [7] = target: Neu5Ac(a2-8)Neu5Ac(a2-8)Neu5Ac
# Summary of the method: as §1
# [8] = target: Neu5Ac(a2-8)Neu5Ac(a2-8)Neu5Ac(a2-3)Gal(b1-4)Glc
# Summary of the method: as §1
# [9] = target: Neu5Ac(a2-8)Neu5Ac(a2-8)Neu5Ac(a2-3)[Gal(b1-3)GalNAc(b1-4)]Gal(b1-4)Glc
# Summary of the method: as §1
# [10] = target: Neu5Ac(a2-8)Neu5Ac(a2-8)Neu5Ac(a2-3)[GalNAc(b1-4)]Gal(b1-4)Glc
# Summary of the method: as §1
# [11] = target: Neu5Ac(a2-8)Neu5Ac(a2-8)Neu5Ac(a2-8)Neu5Ac(a2-3)[GalNAc(b1-4)]Gal(b1-4)Glc
# Summary of the method: as §1
# [12] = target: Neu5Ac(a2-8)Neu5Gc(a2-3)Gal(b1-4)GlcNAc
# Summary of the method: as §1
# [13] = target: Neu5Ac(b2-6)Gal(b1-4)GlcNAc
# Summary of the method: as §1
# Neu5Ac(b2-6)GalNAc = target: Neu5Ac(b2-6)GalNAc
# Summary of the method: as §1
# [14] = target: Neu5Ac9Ac(a2-3)Gal(b1-3)GlcNAc
# Summary of the method: as §1
# [15] = target: Neu5Ac9Ac(a2-3)Gal(b1-4)GlcNAc
# Summary of the method: as §1
# [16] = target: Neu5Ac9Ac(a2-6)Gal(b1-4)GlcNAc
# Summary of the method: as §1
# [17] = target: Neu5Gc(a2-3)Gal(b1-3)GlcNAc
# Summary of the method: as §1
# [18] = target: Neu5Gc(a2-3)Gal(b1-3)[Fuc(a1-4)]GlcNAc
# Summary of the method: as §1
# Neu5Gc(a2-3)Gal(b1-4)Glc = target: Neu5Gc(a2-3)Gal(b1-4)Glc
# Summary of the method: as §1
# [19] = target: Neu5Gc(a2-3)Gal(b1-4)GlcNAc
# Summary of the method: as §1
# [20] = target: Neu5Gc(a2-3)Gal(b1-4)GlcNAc(b1-3)Gal(b1-4)GlcNAc(b1-2)Man(a1-3)[Neu5Gc(a2-3)Gal(b1-4)GlcNAc(b1-3)Gal(b1-4)GlcNAc(b1-2)Man(a1-6)]Man(b1-4)GlcNAc(b1-4)GlcNAc
# Summary of the method: as §1
# [21] = target: Neu5Gc(a2-3)Gal(b1-4)[Fuc(a1-3)]GlcNAc
# Summary of the method: as §1
# [22] = target: Neu5Gc(a2-6)Gal(b1-4)GlcNAc
# Summary of the method: as §1
# Neu5Gc(a2-6)GalNAc = target: Neu5Gc(a2-6)GalNAc
# Summary of the method: as §1
# [23] = target: Neu5Gc(a2-8)Neu5Ac(a2-3)Gal(b1-4)GlcNAc
# Summary of the method: as §1
# [24] = target: Neu5Gc(a2-8)Neu5Gc(a2-3)Gal(b1-4)GlcNAc
# Summary of the method: as §1
# [25] = target: Neu5Gc(a2-8)Neu5Gc(a2-3)Gal(b1-4)GlcNAc(b1-3)Gal(b1-4)GlcNAc
# Summary of the method: as §1
# [26] = target: Neu5Gc(a2-8)Neu5Gc(a2-6)Gal(b1-4)GlcNAc
# Summary of the method: as §1
# [27] = target: Neu5Gc(b2-6)Gal(b1-4)GlcNAc
# Summary of the method: as §1
binder,measurement,setting,value
B1,glycan array binding signal (z-score),Neu5Ac(a2-8)Neu5Ac,-1.47
same,glycan array binding signal (z-score),[1],-1.64
same,glycan array binding signal (z-score),[2],-1.47
same,glycan array binding signal (z-score),[3],0.642
same,glycan array binding signal (z-score),[4],-1.78
same,glycan array binding signal (z-score),[5],0.425
same,glycan array binding signal (z-score),[6],-0.763
same,glycan array binding signal (z-score),[7],-0.5
same,glycan array binding signal (z-score),[8],-0.355
same,glycan array binding signal (z-score),[9],-0.308
same,glycan array binding signal (z-score),[10],0.471
same,glycan array binding signal (z-score),[11],-1.88
same,glycan array binding signal (z-score),[12],0.379
same,glycan array binding signal (z-score),[13],1.03
same,glycan array binding signal (z-score),Neu5Ac(b2-6)GalNAc,1.13
same,glycan array binding signal (z-score),[14],-0.103
same,glycan array binding signal (z-score),[15],-0.15
same,glycan array binding signal (z-score),[16],0.801
same,glycan array binding signal (z-score),[17],0.358
same,glycan array binding signal (z-score),[18],0.176
same,glycan array binding signal (z-score),Neu5Gc(a2-3)Gal(b1-4)Glc,-1.49
same,glycan array binding signal (z-score),[19],0.532
same,glycan array binding signal (z-score),[20],0.839
same,glycan array binding signal (z-score),[21],0.985
same,glycan array binding signal (z-score),[22],-0.738
same,glycan array binding signal (z-score),Neu5Gc(a2-6)GalNAc,-1.24
same,glycan array binding signal (z-score),[23],0.812
same,glycan array binding signal (z-score),[24],0.362
same,glycan array binding signal (z-score),[25],0.437
same,glycan array binding signal (z-score),[26],1.17
same,glycan array binding signal (z-score),[27],0.394

# Rewritten with tabs: part of the list above.
binder	measurement	setting	value
B1	glycan array binding signal (z-score)	[7]	-0.5
same	glycan array binding signal (z-score)	[24]	0.362
